Laboratory results: PubChem BioAssay AID2685 (National Center for Advancing Translational Sciences (NCATS), 2010)
Some of the results follow. Further columns of the screen follow, without active or inactive calls. The list favours compounds with an active or inconclusive main result. Potencies come from curve fits of mixed quality, noted in brackets.

Experiment: qHTS Assay for Lipid Storage Modulators in Drosophila S3 Cells;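 for cell number change: cells counted by Cell Tracker Red CMTPX staining in the red channel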
Details: BODIPY lipid droplet fluorescence, 18-24 h; for cell number change: measured here: cell count max response, cells fed with added oleic acid
Summary of the method: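 Laser-scanning cytometry quantifies lipid droplet accumulation (500–530 nm total intensity; droplet/cell object ratio) in oleic acid-fed (400 uM added) Drosophila S3 cells treated with a concentration series. 20 uM Triacsin C defined 100% inhibition.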

[1] = measured here: cell number channel AC50, cells fed with added oleic acid
[2] = measured here: lipid fluorescence (Fed channel) AC50, cells fed with added oleic acid

| SMILES | cell number change [%] | AC50 [1] | AC50 [2] |
| --- | --- | --- | --- |
| CCNC(=O)COc1ccc(C=O)cc1OC | 12.7 | 4.61 nM [rising, full curve, poor fit] | – |
| CCCc1nnc(NC(=O)CCC(=O)N2CCN(CCn3c(C)ccc3C)CC2)s1 | -36.1 | 2060 nM [falling, partial curve] | 580 nM [falling, partial curve] |
| COc1ccccc1NC(=O)Nc1ccc(N2CCOCC2)cc1 | – | – | 51.7 nM [falling, full curve, poor fit] |
| Cc1nc2oc3ccccc3c(=O)c2cc1C(=O)O | 11.3 | – | 731 nM [rising, single point] |
| Cc1ccc(OCCCC(=O)N2CCOCC2)c(C)c1 | -2.66 | – | 32600 nM [rising, single point] |
| Cc1c(CCC(=O)O)c(=O)oc2cc(OCc3cccc(Cl)c3)ccc12 | -10 | – | 5.17 nM [falling, full curve, poor fit] |
| COc1ccc(C2CC(=O)C=C(NNS(=O)(=O)c3ccc(C)cc3)C2)cc1 (stereo not drawn) | 23.1 | – | 5800 nM [rising, partial curve] |
| Cc1ccc2[nH]c3nc(N/N=C/c4cccc(O)c4)nnc3c2c1 | -27 | – | 1300 nM [rising, full curve] |
| Cc1sc2nc(CN(CCc3ccccc3)C(=O)c3ccco3)[nH]c(=O)c2c1C | -20.3 | – | – |
| CCc1nn(CC(=O)NCCN2CCOCC2)c(=O)c2cc3c(OC)cccc3n12 | -1.83 | – | – |
| O=C(COc1ncnc2ccccc12)c1ccc(Cl)cc1 | -5.35 | – | – |
| COc1ccc(CN2CCCC(C(=O)c3cccc(OC(C)C)c3)C2)cc1Cn1cccn1 (stereo not drawn) | 3.74 | – | 146 nM [falling, full curve, poor fit] |
| O=C1c2ccccc2NC(c2cccnc2)N1c1ccccc1F (stereo not drawn) | 52.1 | 20600 nM [rising, single point] | – |
| CSc1ccc(C2CC(=O)Nc3c2c(=O)n(C)c(=O)n3C)cc1 (stereo not drawn) | 6.39 | – | 130 nM [falling, full curve, poor fit] |
| N=C1/C(=C/c2cccn2-c2ccc([N+](=O)[O-])cc2)C(=O)N=C2SC=CN12 | – | – | 103 nM [rising, full curve] |
| COc1ccc(CNC(=O)CCNC(=O)N2CCn3c2nc2ccccc23)cc1 | 15.6 | – | – |
| CCc1nc2ccccc2c(C(=O)OC2CCCCC2=O)c1C (stereo not drawn) | – | – | 651 nM [rising, partial curve, poor fit] |
| COc1ccccc1NC(=O)c1cc(N2C(=O)C3C4CCC(C4)C3C2=O)ccc1Cl (stereo not drawn) | -10.4 | – | 6510 nM [falling, single point] |
| COc1ccc(/C=N/n2c(-c3cccs3)n[nH]c2=S)cc1 | 16.1 | – | 29100 nM [rising, single point] |
| c1csc(CNc2ncnc3ccc(-c4ccc5c(c4)OCO5)cc23)c1 | -8.61 | – | – |
| Cc1ccc(C(=O)NCCC(=O)NCc2cc(=O)n(C)c(=O)n2C)cc1 | 6.42 | – | – |

| SMILES | cell number change [%] | AC50 [1] | AC50 [2] |
| --- | --- | --- | --- |
| O=Cc1cnc(N2CCN(Cc3ccccc3)CC2)s1 | 17.7 | – | – |
| O=C(NCc1ccccc1F)C1CCCN1S(=O)(=O)c1ccc(Cl)cc1 (stereo not drawn) | -26.5 | – | 25900 nM [falling, single point] |
| COc1cccc(C(=O)NCCCNC(=O)c2ccco2)c1 | 5.71 | 731 nM [rising, partial curve, poor fit] | – |
| COc1ccc(OC)c(C(=O)c2ccc(C(=O)c3cc(OC)ccc3OC)cc2)c1 | 45.5 | 5170 nM [rising, full curve] | 4110 nM [rising, full curve] |
| Cc1nnc(N/N=C/c2cccc(OCc3ccc(Cl)c(Cl)c3)c2)n1N | -23.2 | – | – |
| CN(C)/C=C(\C=O)c1onc(-c2ccccc2Cl)c1C#N | 0.993 | – | 6510 nM [falling, single point] |
| O=C(O)/C=C/S(=O)(=O)c1ccc2ccccc2c1 | -25.9 | 4110 nM [falling, full curve, poor fit] | 1300 nM [falling, full curve] |
| O=C(CCS(=O)(=O)c1ccccc1)Nc1ccc(N2CCOCC2)cc1 | -5.29 | – | – |
| CCn1c2ccccc2c2cc(C3C(C#N)=C(N)Oc4n[nH]c(COC)c43)ccc21 (stereo not drawn) | -10.2 | – | 1840 nM [rising, full curve] |
| O=C(Cn1nc(-c2ccccc2)c2ccccc2c1=O)NCCN1CCOCC1 | -21.6 | – | – |
| COCCNC(=O)c1ccccc1NC(=O)c1cccc([N+](=O)[O-])c1C | 3.28 | – | – |
| CC1(C)C2CCC1(C)C(OC(=O)CSc1nc(N)cc(=O)[nH]1)C2 (stereo not drawn) | -22.3 | – | 920 nM [falling, full curve] |
| Cc1ccc(N(CC(=O)NCc2ccccc2)C(=O)CCC(=O)Nc2nccs2)cc1 | 32.5 | 25900 nM [rising, single point] | 1160 nM [falling, single point] |
| O=C(NCCCNC(=O)c1ccccn1)c1cccc(F)c1 | 4.76 | – | – |
| Clc1ccccc1OCCCCn1ccnc1 | 189 | – | 1640 nM [rising, partial curve] |
| N#Cc1cc(Oc2cccc3cccnc23)c(-n2nnc3ccccc32)cc1C#N | – | – | 25900 nM [falling, partial curve, poor fit] |
| O=C(O)CCC(=O)N1CCc2cc(S(=O)(=O)N3CCCCC3)ccc21 | -25 | – | 10300 nM [falling, single point] |
| Cc1ccc(C)c(C(=O)COC(=O)c2nn(C)c(=O)c3ccccc23)c1 | 0.468 | 259 nM [falling, full curve, poor fit] | 366 nM [falling, full curve] |
| CC(NC(=O)COC(=O)/C=C/c1ccc([N+](=O)[O-])cc1)c1ccccc1 (stereo not drawn) | 7.92 | – | 58 nM [falling, full curve] |
| Cc1ccccc1-c1nc(CS(=O)CC(=O)NCc2ccc3c(c2)OCO3)c(C)o1 (stereo not drawn) | -11.4 | – | 29100 nM [rising, single point] |
| Cc1cccc(NC(=O)c2ccc(NC(=O)c3ccccc3Br)cc2)c1 | -19.1 | – | 1160 nM [falling, partial curve, poor fit] |

Rewritten with tabs: part of the list above.
SMILES	cell number change [%]	AC50 [1]	AC50 [2]
COc1ccc(OC)c(C(=O)c2ccc(C(=O)c3cc(OC)ccc3OC)cc2)c1	45.5	5170 nM [rising, full curve]	4110 nM [rising, full curve]
Cc1nnc(N/N=C/c2cccc(OCc3ccc(Cl)c(Cl)c3)c2)n1N	-23.2	–	–
CN(C)/C=C(\C=O)c1onc(-c2ccccc2Cl)c1C#N	0.993	–	6510 nM [falling, single point]
